Results taken from the supplement of paper PMC10470496.
Where a name gives a salt, the structure may show the parent alone. This is one part of the list. Many values rest on one well or one pass, so single values are uncertain.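 The strains were three CDC resistance-bank clinical C. auris isolates from clades III, IV and I, cultured in RPMI-1640 at 35°C. Growth was background-corrected OD600 versus vehicle-only wells on the same plate. A hit needed >50% inhibition in two or more strains plus a plate-corrected B-score exceeding 0.1.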

Each compound was assayed on C. auris AR-384 (assay: growth relative to vehicle control (OD600 ratio) (fraction); higher = less inhibition). Conditions: 1 µM; 24 h.
Compound CC(=O)OC(C)C[N+](C)(C)C (configuration not stated) [Methacholine chloride] has a growth of 1.03.
Work on CCCC1O[C@@H]2C[C@H]3[C@@H]4CCC5=CC(=O)C=C[C@]5(C)[C@H]4[C@@H](O)C[C@]3(C)[C@]2(C(=O)CO)O1 (some centres not stated) [Budesonide] yielded a growth of 1.08.
COCCCOc1ccnc(C[S+]([O-])c2nc3ccccc3[nH]2)c1C (configuration not stated) [Rebeprazole sodium] was tested, and the growth was 0.89.
In the case of Cc1nc2c([nH]1)-c1ccccc1N(C(=O)c1ccc(NC(=O)c3ccccc3-c3ccccc3)cc1)CC2 [Conivaptan HCl], the growth is reported as 0.7.
O=C1CN(/N=C/c2ccc([N+](=O)[O-])o2)C(=O)N1 [Nitrofurantoin] was tested, and the growth was 0.63.
Cc1noc(NS(=O)(=O)c2ccc(N)cc2)c1C [Sulfisoxazole] was tested, and the growth was 1.02.
C[C@@H]1C[C@H]2[C@@H]3CCC4=CC(=O)C=C[C@]4(C)[C@@]3(F)[C@@H](O)C[C@]2(C)[C@@]1(O)C(=O)CO [Dexamethasone (DHAP)] showed a growth of 0.79.
COc1cc2nc(N3CCN(C(=O)C4CCCO4)CC3)nc(N)c2cc1OC (configuration not stated) [Terazosin HCl] was tested, and the growth was 0.7.
With COCCCN1CCC(NC(=O)c2cc(Cl)c(N)c3c2OCC3)CC1 [Prucalopride] the growth was 1.43.
With COc1cccc2c1C(=O)c1c(O)c3c(c(O)c1C2=O)C[C@@](O)(C(C)=O)C[C@@H]3O[C@H]1C[C@H](N)[C@H](O)[C@H](C)O1 [Daunorubicin HCl] the growth was 0.97.
In the case of CC(=O)OCC[N+](C)(C)C [Acetylcholine Chloride], the growth is reported as 0.71.
Work on NC(=O)N1CCC(CC(=O)N2CCC([C@H]3c4ncc(Br)cc4CCc4cc(Cl)cc(Br)c43)CC2)CC1 [Lonafarnib] yielded a growth of 1.1.
